According to the supplement of paper PMC10849652:
Some of the results follow.

Chains of the proteins cited; added tags and fusions are not shown. Lines headed by an entry give the natural chain unless they say otherwise; changes in a name come on top.
UniProt Q9BW04: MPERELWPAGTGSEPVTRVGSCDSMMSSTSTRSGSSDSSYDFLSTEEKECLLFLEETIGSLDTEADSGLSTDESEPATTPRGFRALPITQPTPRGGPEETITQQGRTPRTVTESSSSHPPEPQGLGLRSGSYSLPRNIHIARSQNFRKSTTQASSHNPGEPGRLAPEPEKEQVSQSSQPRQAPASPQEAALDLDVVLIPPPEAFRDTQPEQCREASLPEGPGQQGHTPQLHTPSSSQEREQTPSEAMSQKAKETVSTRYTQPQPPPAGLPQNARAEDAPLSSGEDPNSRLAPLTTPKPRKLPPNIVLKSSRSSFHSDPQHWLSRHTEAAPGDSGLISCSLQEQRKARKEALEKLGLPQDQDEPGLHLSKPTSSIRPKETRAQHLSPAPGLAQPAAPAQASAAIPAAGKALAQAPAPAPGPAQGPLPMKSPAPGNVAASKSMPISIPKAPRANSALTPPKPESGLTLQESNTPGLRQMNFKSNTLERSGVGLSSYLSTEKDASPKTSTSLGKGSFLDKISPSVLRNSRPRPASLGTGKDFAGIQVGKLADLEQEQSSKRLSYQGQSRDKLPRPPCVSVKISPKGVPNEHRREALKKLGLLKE
UniProt P60059: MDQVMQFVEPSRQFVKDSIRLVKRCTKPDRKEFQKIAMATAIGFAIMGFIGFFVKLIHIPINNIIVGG
UniProt Q9HD40: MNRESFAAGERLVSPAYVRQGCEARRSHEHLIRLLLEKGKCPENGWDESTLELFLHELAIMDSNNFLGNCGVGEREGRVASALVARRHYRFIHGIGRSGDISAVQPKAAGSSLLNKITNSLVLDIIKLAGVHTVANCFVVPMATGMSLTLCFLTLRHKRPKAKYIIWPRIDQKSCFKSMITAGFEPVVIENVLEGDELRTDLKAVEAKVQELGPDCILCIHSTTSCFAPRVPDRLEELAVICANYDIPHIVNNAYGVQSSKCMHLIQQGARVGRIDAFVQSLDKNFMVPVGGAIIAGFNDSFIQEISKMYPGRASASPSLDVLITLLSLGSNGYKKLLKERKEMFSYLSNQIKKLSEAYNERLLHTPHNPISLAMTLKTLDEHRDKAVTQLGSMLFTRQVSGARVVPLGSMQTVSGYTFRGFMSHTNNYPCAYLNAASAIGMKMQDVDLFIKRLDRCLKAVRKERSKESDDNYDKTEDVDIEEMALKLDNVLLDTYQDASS
UniProt Q9H7N4: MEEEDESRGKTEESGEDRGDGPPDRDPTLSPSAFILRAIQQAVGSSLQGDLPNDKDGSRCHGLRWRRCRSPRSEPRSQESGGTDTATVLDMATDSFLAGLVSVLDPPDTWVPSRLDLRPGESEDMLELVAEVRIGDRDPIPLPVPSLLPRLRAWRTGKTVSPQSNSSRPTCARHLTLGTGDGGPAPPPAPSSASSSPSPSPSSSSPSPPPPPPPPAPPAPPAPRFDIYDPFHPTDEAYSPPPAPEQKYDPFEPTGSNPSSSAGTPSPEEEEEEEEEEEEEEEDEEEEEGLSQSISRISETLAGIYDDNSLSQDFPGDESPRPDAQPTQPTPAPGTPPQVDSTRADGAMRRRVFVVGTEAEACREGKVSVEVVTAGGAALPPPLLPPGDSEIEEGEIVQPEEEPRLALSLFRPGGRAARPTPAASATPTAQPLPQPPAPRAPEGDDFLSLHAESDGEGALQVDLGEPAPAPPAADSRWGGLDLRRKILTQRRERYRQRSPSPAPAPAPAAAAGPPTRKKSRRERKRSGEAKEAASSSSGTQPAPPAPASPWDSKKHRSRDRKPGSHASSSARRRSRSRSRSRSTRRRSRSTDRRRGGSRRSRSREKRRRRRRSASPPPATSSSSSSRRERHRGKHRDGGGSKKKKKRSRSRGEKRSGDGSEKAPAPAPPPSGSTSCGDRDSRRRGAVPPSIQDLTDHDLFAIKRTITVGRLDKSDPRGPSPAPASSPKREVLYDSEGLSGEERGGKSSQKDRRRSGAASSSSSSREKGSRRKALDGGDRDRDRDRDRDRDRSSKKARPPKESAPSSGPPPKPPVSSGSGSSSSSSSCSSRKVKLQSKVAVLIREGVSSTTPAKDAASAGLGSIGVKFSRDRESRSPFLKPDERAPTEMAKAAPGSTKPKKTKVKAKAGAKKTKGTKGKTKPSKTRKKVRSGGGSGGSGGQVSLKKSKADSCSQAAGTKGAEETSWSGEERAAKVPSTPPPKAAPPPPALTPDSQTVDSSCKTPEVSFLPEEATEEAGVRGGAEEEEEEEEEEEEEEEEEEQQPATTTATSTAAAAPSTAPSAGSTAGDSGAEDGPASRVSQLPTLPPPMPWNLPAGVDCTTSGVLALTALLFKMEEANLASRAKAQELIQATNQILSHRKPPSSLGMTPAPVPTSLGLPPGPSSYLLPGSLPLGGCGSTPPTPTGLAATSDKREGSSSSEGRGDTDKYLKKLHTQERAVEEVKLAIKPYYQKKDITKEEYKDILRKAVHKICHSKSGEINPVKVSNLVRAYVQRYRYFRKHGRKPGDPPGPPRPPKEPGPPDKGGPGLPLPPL
UniProt Q9UPU9: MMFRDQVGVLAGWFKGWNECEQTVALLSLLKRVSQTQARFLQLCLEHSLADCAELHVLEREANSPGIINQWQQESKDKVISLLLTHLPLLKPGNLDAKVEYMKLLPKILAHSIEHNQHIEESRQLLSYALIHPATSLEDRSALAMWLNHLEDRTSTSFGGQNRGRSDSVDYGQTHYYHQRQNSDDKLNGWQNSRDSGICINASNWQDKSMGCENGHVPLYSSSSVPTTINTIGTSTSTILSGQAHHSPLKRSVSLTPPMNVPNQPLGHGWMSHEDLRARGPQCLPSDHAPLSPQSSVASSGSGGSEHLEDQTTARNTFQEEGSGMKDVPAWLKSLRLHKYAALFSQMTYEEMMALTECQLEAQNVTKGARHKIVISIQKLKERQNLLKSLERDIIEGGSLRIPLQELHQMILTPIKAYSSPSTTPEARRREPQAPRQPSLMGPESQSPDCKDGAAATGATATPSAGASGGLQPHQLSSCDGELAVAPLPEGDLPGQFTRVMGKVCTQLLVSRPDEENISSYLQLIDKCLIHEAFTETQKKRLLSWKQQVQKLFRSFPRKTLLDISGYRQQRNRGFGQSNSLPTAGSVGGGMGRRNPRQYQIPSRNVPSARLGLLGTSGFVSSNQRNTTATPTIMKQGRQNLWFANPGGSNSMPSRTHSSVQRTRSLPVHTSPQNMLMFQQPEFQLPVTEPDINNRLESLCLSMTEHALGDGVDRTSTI
UniProt O15127: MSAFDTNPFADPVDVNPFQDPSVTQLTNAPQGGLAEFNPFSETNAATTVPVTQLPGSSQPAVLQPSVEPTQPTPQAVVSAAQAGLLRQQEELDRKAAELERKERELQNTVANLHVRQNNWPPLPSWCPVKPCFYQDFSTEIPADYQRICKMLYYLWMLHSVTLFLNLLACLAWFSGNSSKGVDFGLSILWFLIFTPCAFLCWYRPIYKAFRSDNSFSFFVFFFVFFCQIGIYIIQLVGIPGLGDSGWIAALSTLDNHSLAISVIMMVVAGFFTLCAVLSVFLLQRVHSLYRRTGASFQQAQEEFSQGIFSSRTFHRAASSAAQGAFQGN
UniProt O94855: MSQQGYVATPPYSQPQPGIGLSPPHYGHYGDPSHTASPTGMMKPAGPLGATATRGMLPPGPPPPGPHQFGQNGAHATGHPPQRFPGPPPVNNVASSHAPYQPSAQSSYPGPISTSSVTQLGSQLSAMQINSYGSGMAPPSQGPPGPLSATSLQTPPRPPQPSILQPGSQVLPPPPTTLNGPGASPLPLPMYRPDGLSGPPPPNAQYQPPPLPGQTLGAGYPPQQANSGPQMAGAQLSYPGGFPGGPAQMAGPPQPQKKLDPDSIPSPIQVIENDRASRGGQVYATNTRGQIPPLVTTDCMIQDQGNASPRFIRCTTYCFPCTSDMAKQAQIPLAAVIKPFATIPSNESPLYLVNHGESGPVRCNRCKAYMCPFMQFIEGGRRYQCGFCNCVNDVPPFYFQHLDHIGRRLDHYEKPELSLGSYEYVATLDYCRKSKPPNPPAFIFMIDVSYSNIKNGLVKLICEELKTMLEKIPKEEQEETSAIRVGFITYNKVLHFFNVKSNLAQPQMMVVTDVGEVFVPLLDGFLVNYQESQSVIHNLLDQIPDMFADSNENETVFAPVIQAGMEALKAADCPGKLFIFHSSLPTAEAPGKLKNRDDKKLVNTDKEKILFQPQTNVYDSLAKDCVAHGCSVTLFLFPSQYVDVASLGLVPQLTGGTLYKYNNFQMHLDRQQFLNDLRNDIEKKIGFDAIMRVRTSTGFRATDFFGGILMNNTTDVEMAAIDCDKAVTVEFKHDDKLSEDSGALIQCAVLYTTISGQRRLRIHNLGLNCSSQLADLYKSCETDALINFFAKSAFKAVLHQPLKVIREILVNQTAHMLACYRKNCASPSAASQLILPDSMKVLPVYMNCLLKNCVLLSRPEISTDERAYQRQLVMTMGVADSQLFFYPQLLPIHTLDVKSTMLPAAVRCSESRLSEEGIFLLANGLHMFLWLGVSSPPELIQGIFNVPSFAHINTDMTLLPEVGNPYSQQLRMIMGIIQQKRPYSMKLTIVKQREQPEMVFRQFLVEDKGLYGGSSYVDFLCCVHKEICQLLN
UniProt Q96IW7: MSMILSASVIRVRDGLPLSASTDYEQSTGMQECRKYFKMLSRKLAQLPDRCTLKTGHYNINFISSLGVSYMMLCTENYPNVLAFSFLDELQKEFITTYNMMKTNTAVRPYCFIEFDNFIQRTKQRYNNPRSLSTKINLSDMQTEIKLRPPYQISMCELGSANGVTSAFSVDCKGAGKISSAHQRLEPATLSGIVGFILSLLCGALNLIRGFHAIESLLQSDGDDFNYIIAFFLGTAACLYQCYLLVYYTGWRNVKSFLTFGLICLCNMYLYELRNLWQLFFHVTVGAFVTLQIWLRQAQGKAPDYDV
UniProt Q96LD8: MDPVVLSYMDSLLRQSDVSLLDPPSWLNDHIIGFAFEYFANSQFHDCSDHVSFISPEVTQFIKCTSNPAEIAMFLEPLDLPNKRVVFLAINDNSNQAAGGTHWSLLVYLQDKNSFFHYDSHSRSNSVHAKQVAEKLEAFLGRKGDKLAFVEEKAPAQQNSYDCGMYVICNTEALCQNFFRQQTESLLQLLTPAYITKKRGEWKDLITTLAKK
UniProt Q5VUM1: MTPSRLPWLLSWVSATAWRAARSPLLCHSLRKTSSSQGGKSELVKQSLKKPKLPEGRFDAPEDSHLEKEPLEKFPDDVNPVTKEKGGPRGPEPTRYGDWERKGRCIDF
UniProt Q9Y6Y8: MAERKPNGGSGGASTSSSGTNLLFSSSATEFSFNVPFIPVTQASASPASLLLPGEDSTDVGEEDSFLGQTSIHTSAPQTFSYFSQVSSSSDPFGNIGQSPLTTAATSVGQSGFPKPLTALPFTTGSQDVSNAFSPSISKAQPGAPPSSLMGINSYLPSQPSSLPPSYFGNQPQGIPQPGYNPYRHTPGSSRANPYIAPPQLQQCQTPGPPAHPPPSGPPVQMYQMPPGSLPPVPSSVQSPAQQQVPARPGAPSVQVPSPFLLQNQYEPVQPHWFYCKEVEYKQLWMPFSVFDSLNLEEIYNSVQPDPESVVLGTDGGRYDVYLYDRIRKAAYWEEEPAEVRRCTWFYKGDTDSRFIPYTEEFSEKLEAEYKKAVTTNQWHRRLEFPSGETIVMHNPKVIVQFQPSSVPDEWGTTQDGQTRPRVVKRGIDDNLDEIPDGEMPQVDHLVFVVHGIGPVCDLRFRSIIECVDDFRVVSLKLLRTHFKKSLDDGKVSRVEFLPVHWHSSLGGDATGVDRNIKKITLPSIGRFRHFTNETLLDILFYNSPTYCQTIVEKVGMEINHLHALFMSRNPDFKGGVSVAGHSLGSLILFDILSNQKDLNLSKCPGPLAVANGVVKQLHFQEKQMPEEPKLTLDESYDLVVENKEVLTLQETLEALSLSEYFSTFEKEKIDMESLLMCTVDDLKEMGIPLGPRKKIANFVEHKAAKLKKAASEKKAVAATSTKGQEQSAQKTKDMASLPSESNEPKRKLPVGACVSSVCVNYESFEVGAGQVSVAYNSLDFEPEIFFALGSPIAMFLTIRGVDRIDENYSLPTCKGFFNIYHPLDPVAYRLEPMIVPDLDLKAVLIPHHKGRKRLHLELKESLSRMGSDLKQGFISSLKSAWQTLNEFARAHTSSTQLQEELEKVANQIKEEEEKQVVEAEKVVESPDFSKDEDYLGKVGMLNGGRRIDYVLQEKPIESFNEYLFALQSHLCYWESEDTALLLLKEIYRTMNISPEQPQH
UniProt Q99470: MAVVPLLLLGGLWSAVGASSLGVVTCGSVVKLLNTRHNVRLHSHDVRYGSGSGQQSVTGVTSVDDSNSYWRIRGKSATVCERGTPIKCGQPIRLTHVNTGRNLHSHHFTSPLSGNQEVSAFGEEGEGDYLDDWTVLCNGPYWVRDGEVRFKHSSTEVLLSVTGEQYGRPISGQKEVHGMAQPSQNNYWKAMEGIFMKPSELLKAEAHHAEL

What was measured:
Assay in all cases: log2 fold change, soluble protein after heating vs DMSO (PISA); higher = thermal stabilisation; K562 lysate, 10 uM; active = over 0.2 and 3.5 SD of the protein, either way, in both replicates (recomputed)
[1] = compound: C1=CC=C(C=C1)[C@H](COC2=CC3=C(C=C2)NC(=O)N3)NC(=O)C4=CC=CN(C4=O)CC5=CC(=C(C=C5)F)F
Procedure, shortened: (§1)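 Log-two fold change in thermal stability relative to solvent controls is reported from duplicates. For each sample, crude K562 extract from dounce-homogenised pellets in PBS pH 7.4 with 1 mM MgCl2, at 1 mg/mL protein, was treated with 10 μM compound for 30 min. Aliquots heated for 3 min across 48°C-58°C were pooled, brought to 0.5% NP-40 at 4°C and cleared at 21,000xg for 90 min. The supernatant was quantified by TMTpro 16plex LC-MS/MS with channel sums equalised.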

[2] = compound: CC1=C(SC2=C1C(=N[C@H](C3=NN=C(N32)C)CC(=O)N)C4=CC=C(C=C4)Cl)C
Procedure, shortened: as §1

[3] = compound: CC1=C2C(=CC=C1)N=C(N(C2=O)C3=CC=CC=C3C)CN4C=NC5=C(N=CN=C54)N
Procedure, shortened: as §1

[4] = compound: Cc1sc2c(c1C)C(c1ccc(Cl)cc1)=N[C@@H](CC(=O)OC(C)(C)C)c1nnc(C)n1-2
Procedure, shortened: as §1

[5] = compound: c1ccc([C@@H]2C[C@H]2NC2CCNCC2)cc1
Procedure, shortened: as §1

Measured: log2 fold change

SARG (UniProt Q9BW04)
inactive: [1] 0.013 | [2] -0.021 | [3] 0.085 | [4] -0.031 | [5] -0.11

SDE2 (UniProt Q6IQ49)
inactive: [1] 0.042 | [2] -0.032 | [3] 0.045 | [4] 0.005 | [5] -0.009

SEC61G (UniProt P60059)
inactive: [1] 0.269 | [2] -0.063 | [3] -0.016 | [4] -0.065 | [5] -0.225

SEPSECS (UniProt Q9HD40)
inactive: [1] 0.059 | [2] 0.01 | [3] 0.029 | [4] -0.018 | [5] -0.065

SCAF1 (UniProt Q9H7N4)
inactive: [1] 0.112 | [3] 0.002 | [4] -0.007 | [5] 0.019
active: [2] -0.492

4 neighbouring records from above, for reference:
SARG (UniProt Q9BW04)
inactive: [1] 0.013 | [2] -0.021 | [3] 0.085 | [4] -0.031 | [5] -0.11

SDE2 (UniProt Q6IQ49)
inactive: [1] 0.042 | [2] -0.032 | [3] 0.045 | [4] 0.005 | [5] -0.009

SEC61G (UniProt P60059)
inactive: [1] 0.269 | [2] -0.063 | [3] -0.016 | [4] -0.065 | [5] -0.225

SEPSECS (UniProt Q9HD40)
inactive: [1] 0.059 | [2] 0.01 | [3] 0.029 | [4] -0.018 | [5] -0.065

(cont.)

SCARB2 (UniProt Q14108)
inactive: [1] 0.034 | [2] 0.022 | [3] -0.029 | [4] -0.002 | [5] 0.074

SENP5 (UniProt Q96HI0)
inactive: [1] -0.072 | [2] 0.082 | [3] -0.004 | [4] 0.024

SEPHS2 (UniProt Q99611)
inactive: [1] 0.046 | [2] 0.015 | [3] -0.056 | [4] -0.026 | [5] 0.017

SAMD4A (UniProt Q9UPU9)
inactive: [1] 0.114 | [2] 0.086 | [3] -0.01 | [4] -0.079 | [5] -0.03

SCAMP2 (UniProt O15127)
inactive: [1] 0.043 | [2] 0.077 | [3] -0.045 | [4] -0.079 | [5] -0.001

SEC24D isoform 2 (UniProt O94855)
inactive: [1] -0.003 | [2] 0.006 | [3] -0.016 | [4] 0.033 | [5] 0.009

SCO2 (UniProt O43819)
inactive: [1] 0.026 | [2] 0.002 | [3] 0.037 | [4] 0.011 | [5] -0.074

SEC22A (UniProt Q96IW7)
inactive: [1] 0.399 | [2] -0.178

SENP8 (UniProt Q96LD8)
inactive: [1] -0.011 | [2] -0.045 | [3] -0.259 | [4] -0.015

SDHAF4 (UniProt Q5VUM1)
inactive: [1] 0.032 | [2] -0.024 | [3] 0.115 | [4] -0.09 | [5] -0.015

SEC23IP (UniProt Q9Y6Y8)
inactive: [1] -0.008 | [2] 0.008 | [3] 0.016 | [4] 0.061 | [5] 0.03

SDF2 (UniProt Q99470)
inactive: [1] 0.007 | [2] 0.051
